PubChem BioAssay AID1224829 | NIAID – 2016
Test: 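Follow-up of TLR4-NF-kappaB regulators using six separate siRNAs for each gene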 (follow-up of hits). System: mouse RAW264.7 G9 macrophage reporter cells. Knock-down reagent: single siRNA against mouse genes, 100 nM. Duration: 2 days of siRNA knock-down, then 40 min of LPS before fixing. Challenge: LPS (Salmonella minnesota R595) at 10 ng/ml. Measurement: 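High-content images after 40 min LPS exposure; GFP-p65 nucleus to surrounding ring signal ratio, normalised to plate median and non-targeting control wells, expressed as z-score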. Scale: p65 translocation z-score: higher = more nuclear NF-kappaB p65 after LPS. Active means: 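Active means the replicate-mean z-score lies beyond plus or minus 2, in either direction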. Calls: active = changed p65 translocation (either direction); inactive = no clear change.
This is one part, drawn at random, of about 3,800 reagents. 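Calls cover raised and lowered translocation; gene median uses one vendor's three siRNAs; qiagen siRNAs acted more weakly than ambion siRNAs.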 Unmarked entries are inactive. The numbers tell different reagents against one gene apart. Further read-outs or replicates are left out here.

The opening 3 entries, ahead of the listing:
gene symbol	reagent no.	siRNA vendor or control pool	p65 translocation z-score, replicate mean
Tns4 (GeneID 217169)	1	ambion single siRNA	-2.17 (active)
Tns4 (GeneID 217169)	2	ambion single siRNA	0.577
Tns4 (GeneID 217169)	3	ambion single siRNA	-5.24 (active)

Results, from the first entry:
gene symbol	reagent no.	siRNA vendor or control pool	p65 translocation z-score, replicate mean
Tns4 (GeneID 217169)	1	ambion single siRNA	-2.17 (active)
Tns4 (GeneID 217169)	2	ambion single siRNA	0.577
Tns4 (GeneID 217169)	3	ambion single siRNA	-5.24 (active)
Tns4 (GeneID 217169)	4	qiagen single siRNA	1.68
Tns4 (GeneID 217169)	5	qiagen single siRNA	0.543
Tns4 (GeneID 217169)	6	qiagen single siRNA	1.48
Rab7 (GeneID 19349)	1	ambion single siRNA	0.158
Rab7 (GeneID 19349)	2	ambion single siRNA	-1.67
Rab7 (GeneID 19349)	3	ambion single siRNA	-3.69 (active)
Rab7 (GeneID 19349)	4	qiagen single siRNA	-1.88
Rab7 (GeneID 19349)	5	qiagen single siRNA	-0.997
Rab7 (GeneID 19349)	6	qiagen single siRNA	-1.6
Ssb (GeneID 20823)	1	ambion single siRNA	-0.817
Ssb (GeneID 20823)	2	ambion single siRNA	-3.61 (active)
Ssb (GeneID 20823)	3	ambion single siRNA	-3.07 (active)
Ssb (GeneID 20823)	4	qiagen single siRNA	1.11
Ssb (GeneID 20823)	5	qiagen single siRNA	0.153
Ssb (GeneID 20823)	6	qiagen single siRNA	-2
Zfp57 (GeneID 22715)	1	ambion single siRNA	0.0903
Zfp57 (GeneID 22715)	2	ambion single siRNA	1.67
Zfp57 (GeneID 22715)	3	ambion single siRNA	-3.56 (active)
Zfp57 (GeneID 22715)	4	qiagen single siRNA	1.79
Zfp57 (GeneID 22715)	5	qiagen single siRNA	0.773
Zfp57 (GeneID 22715)	6	qiagen single siRNA	-3.32 (active)
